Targets, with sequences 5′ to 3′:
T1: SAM-II riboswitch RNA pseudoknot, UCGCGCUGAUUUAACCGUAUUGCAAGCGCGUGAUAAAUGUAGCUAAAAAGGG. About 200 hits among about 21,000 compounds.
T2: TPP riboswitch RNA three-way junction, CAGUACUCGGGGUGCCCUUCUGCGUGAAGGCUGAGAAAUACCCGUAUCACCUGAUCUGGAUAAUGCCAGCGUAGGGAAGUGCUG. About 160 hits among about 24,000 compounds.
T3: PreQ1 riboswitch RNA pseudoknot, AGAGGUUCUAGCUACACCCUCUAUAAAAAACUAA. From B. subtilis. About 170 hits among about 24,000 compounds.

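Each compound is printed as two spots on a slide made to bind it covalently, so it has no test concentration; the read-out is fluorescence of the bound, labelled oligonucleotide. For the PreQ1, TPP and SAM-II riboswitches the laboratory earlier reported (doi:10.1038/s41467-019-09493-3) 1 µM RNA, 2 h, and a rule that included a mean Z-score above 3 (spot signal-to-noise against the whole library), a score well above that on a control array, and duplicate spots agreeing (coefficient of variation under 100). The data file gives only the calls; its cut-offs may differ, and compounds hitting several targets are kept. These are primary screening calls, not affinities; a compound without a hit may have attached poorly or may still bind in solution.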
Key: active = hit, inactive = tested without a hit.
This is an unselected part of the compounds tested.
A target missing from an entry has no call listed here.

For O=C(c1ccc(S(=O)(=O)NCc2ccccn2)cc1)N1CC[C@@H](O)C1 the calls were T1: inactive; T2: inactive; T3: inactive.
For CC(C)CC1C(C#N)=C(N)Oc2c1c(=O)oc1ccccc21 (stereo not drawn) the calls were T1: inactive; T2: inactive; T3: inactive.
For CC(C)c1n[nH]c2c1C1(C(=O)Nc3ccccc31)C(C#N)=C(N)O2 (stereo not drawn) the calls were T1: inactive; T2: inactive; T3: inactive.
For CSc1ccc(C2C(C#N)=C(N)N(c3ccccc3)C3=C2C(=O)CCC3)cc1 (stereo not drawn) the calls were T1: inactive; T2: inactive; T3: inactive.
For COc1ccc(Nc2nc(N)nc(CSc3nncn3C)n2)cc1 the calls were T1: inactive; T2: inactive; T3: inactive.
For Cc1nn(-c2ccccc2)c2c1C1(C(=O)N(Cc3ccc(Cl)cc3)c3ccccc31)C(C#N)=C(N)O2 (stereo not drawn) the calls were T1: inactive; T2: inactive; T3: inactive.
For Cc1cc(C)n(CC(C)NC2CCN(Cc3cccc(O)c3)CC2)n1 (stereo not drawn) the calls were T1: inactive; T2: inactive; T3: inactive.
For O=C(NCCOCc1ccc(Cl)cc1)C1CNCCO1 (stereo not drawn) the calls were T1: inactive; T2: inactive; T3: inactive.
For COC(=O)c1nn(-c2ccccc2)nc1N the calls were T1: inactive; T2: inactive; T3: inactive.
For CCCCNc1nc2c(-c3ccc(F)cc3)nnn2c2ccccc12 the calls were T1: inactive; T2: inactive; T3: inactive.
For COc1ccc(OC)c(Nc2c3c(nc4ccccc24)CCC3)c1 the calls were T1: inactive; T2: inactive; T3: inactive.
For CC(C)(O)Cn1c(NC(=O)c2ccc(-c3cn[nH]c3)s2)nc2cc(CN3CCOCC3)ccc21 the calls were T1: inactive; T2: inactive; T3: inactive.
For CC(C)c1nc(CN(C)C(=O)c2ccc(C3CCCN3)s2)cs1 (stereo not drawn) the calls were T1: inactive; T2: inactive; T3: inactive.
For CCC1CN1P(=O)(Oc1ccc(Cl)cc1)N1CC1CC (stereo not drawn) the calls were T1: inactive; T2: inactive; T3: inactive.
For O=[N+]([O-])c1ccc(Cl)cc1NCc1ccco1 the calls were T1: inactive; T2: inactive; T3: inactive.
For CC(C)(C)C1CCc2c(sc(NC(=O)c3ccccc3Cl)c2C(=O)NCCO)C1 (stereo not drawn) the calls were T1: inactive; T2: inactive; T3: inactive.
For COc1ncccc1-c1nc2c(C)cccc2cc1CO the calls were T1: inactive; T2: inactive; T3: inactive.
For OCc1ccc(CN2CCN(C3Cc4ccccc4C3)CC(O)C2)o1 (stereo not drawn) the calls were T1: inactive; T2: inactive; T3: inactive.
For O=[N+]([O-])c1c(N2CCN(CCO)CC2)ccc2nonc12 the calls were T1: inactive; T2: inactive; T3: inactive.
For Cc1cc(NCC2CCCO2)n2nc(C(F)(F)F)c(-c3ccc(Cl)cc3)c2n1 (stereo not drawn) the calls were T2: inactive; T3: inactive.
For Cc1cccc(N2CCN(CC(O)c3ccc4[nH]ccc4c3)CC2)c1C (stereo not drawn) the calls were T1: inactive; T2: inactive; T3: inactive.
For Cc1ccccc1-c1ccc(CN2CCC(N)(C(=O)O)C2)cc1 (stereo not drawn) the calls were T1: inactive; T2: inactive; T3: inactive.

Some entries from above, unchanged:

| SMILES | T1 | T2 | T3 |
|---|---|---|---|
| `COc1ncccc1-c1nc2c(C)cccc2cc1CO` | inactive | inactive | inactive |
| `Cc1cc(C)n(CC(C)NC2CCN(Cc3cccc(O)c3)CC2)n1` (stereo not drawn) | inactive | inactive | inactive |

Source: the ROBIN nucleic acid binder screens (doi:10.1002/anie.202211358).